The list shows a part of the results. These are further read-outs of the screen, such as a control signal, another cell line or another target. No call is given for them. The list favours compounds with an active or inconclusive main result. Words in brackets tell the shape of the fitted curve; partial curves, single points and poor fits give uncertain potencies.

The assay can be described thus: Cell signaling CRE-BLA (Fsk stim). The note with it: CHO CRE-bla reporter (cAMP response element driving beta-lactamase), forskolin EC10, beta-lactamase ratio; measured here: 460 nm blue channel. Summed up: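 Modulation of forskolin signalling: compounds in titration series added with EC10 NKH 477 to CHO cells carrying a CRE-driven beta-lactamase reporter, 3 h, 37C. CCF4 FRET ratio (460/530 nm, ex 405 nm) gives %activity and AC50.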
A word on the AC50: it is the midpoint of the concentration-response curve, whichever way the signal moves. Take `O=c1c(-c2ccc(F)cc2)nc2cnc(Nc3ccccc3)nc2n1C1CC1`: the AC50 is 6.31 µM [rising, partial curve, poor fit].
To `CCCn1c(CCC(=O)O)ccc1-c1ccc(F)cc1` belongs 12.6 µM [rising, partial curve, poor fit]; to `COc1cc(NC(=O)c2cccs2)c(C(=O)OCC(=O)NCc2ccco2)cc1OC`, 3.16 µM [rising, single point].
With `COc1ccc(CNc2nc3c(c(=O)n(Cc4ccc(Cl)cc4)c(=O)n3C)n2C)cc1` the figure was 3.98 µM [falling, full curve].
With `CCn1cc(C(=O)NCC2COc3ccccc3O2)c2cc(OC)c(OC)cc2c1=O` (centres undefined) the figure was 10 µM [rising, partial curve].
Regarding `COc1ccc(CCNC(=O)c2ccco2)cc1`, the concentration at half-maximal activity (AC50) is 0.00398 µM [falling, full curve].
Take `CCC(=O)Nc1c(OC(=O)CC)ccc2c(C)cc(=O)oc12`: the concentration at half-maximal activity (AC50) was 25.1 µM [rising, single point].
With `COc1ccc(C(=O)Nc2ccc3c(c2)OCO3)cc1OC` the figure was 10 µM [rising, partial curve]; with `COc1ccc(NC(=O)CC2C(=O)N(c3cccc(OC)c3)C(=O)N2C2CCCCC2)cc1` (centres undefined), 0.0794 µM [falling, full curve, poor fit]; with `Cn1c(-c2ccc(F)cc2)cnc1SCC(=O)N1CCCCC1`, 25.1 µM [rising, single point].
For the molecule `Cc1ccc2c(c1)cc(CN(Cc1cccs1)C(=O)c1ccco1)c1nnnn12`, the AC50 was 7.94 µM [rising, partial curve].
To `Cc1cc(N2CCN(c3ccccn3)CC2)n2c(nc3ccccc32)c1C#N` belongs 1.58 µM [rising, full curve]; to `O=c1c(-c2ccccc2)nc2cnc(N3CCNCC3)nc2n1C1CC1`, 12.6 µM [rising, partial curve].
To `Cc1c(NC(=O)c2ccccc2F)c(=O)n(-c2ccccc2)n1C` belongs 5.01 µM [falling, single point]; to `O[C@@H]1C2CCCC1[C@]1(O)CCCCC1C2` (some centres undefined), 20 µM [rising, single point]; to `O=C(OCC1COc2ccccc2O1)c1c(F)cccc1F` (centres undefined), 1.26 µM [falling, partial curve, poor fit].
With `CC(C)n1nc(C(=O)NCCc2ccc(S(N)(=O)=O)cc2)c2ccccc2c1=O` the figure was 20 µM [rising, partial curve]; with `Cc1nn(-c2ccccc2)c(Cl)c1C(=O)N1CCN(c2ncnc3c2cnn3-c2ccccc2)CC1`, 5.01 µM [falling, full curve].
Regarding `CCn1c(=O)cc(OCC(=O)N2CCN(c3cccc(C(F)(F)F)c3)CC2)c2ccccc21`, the AC50 was 12.6 µM [falling, partial curve].
